Values from PubChem BioAssay AID1224830 (NIAID, 2016).

Purpose: 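Genes whose knock-down alters the TNF-alpha reporter response to LPS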 (primary screen)
System: human THP-1 monocytic leukaemia cells, TNF dual-luciferase reporter clone, PMA-differentiated to macrophage-like cells
Reagents: siRNA pool against human genes, 50 nM
Duration: LPS for 4 h, given about 3 days after siRNA transfection
Conditions: bacterial LPS (TLR4 ligand), 10 ng/ml
Measurement: 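TNF firefly reporter luminescence divided by renilla, normalised to the plate median, then turned into a robust z-score for each replicate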
Scale: TNF reporter robust z-score: higher = stronger TNF reporter response to LPS
Call rule: 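a well is active when its z-score exceeds 2.8 or falls below -1.5; control wells carry no call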
Shown is an unselected part of about 18,000 reagents tested. About 2,900 of all reagents (16%) were called active. 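Calls are made per well; low scores hint the gene aids the LPS response, high scores that it dampens it.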 Repeated entries: four replicate wells of each siRNA pool.

gene,TNF reporter robust z-score,outcome
CYTH3,0.09,inactive
CYTH3,-0.2,inactive
CYTH3,0.9,inactive
CYTH3,0.02,inactive
NUBP2,-0.43,inactive
NUBP2,-0.37,inactive
NUBP2,-0.49,inactive
NUBP2,-0.03,inactive
WRAP73,3.75,active
WRAP73,2.48,inactive
WRAP73,1.8,inactive
WRAP73,2.07,inactive
NLRX1,-0.77,inactive
NLRX1,-0.53,inactive
NLRX1,-0.78,inactive
NLRX1,-1.48,inactive
FXYD2,-1.18,inactive
FXYD2,0.06,inactive
FXYD2,-0.74,inactive
FXYD2,1.16,inactive
C12orf76,-0.84,inactive
C12orf76,-0.59,inactive
C12orf76,-0.3,inactive
C12orf76,0.51,inactive
NDC80,-0.25,inactive
NDC80,1.29,inactive
NDC80,-0.02,inactive
NDC80,0.92,inactive

5 entries from above, set out differently.
gene | TNF reporter robust z-score | outcome
CYTH3 | 0.02 | inactive
NUBP2 | -0.43 | inactive
NUBP2 | -0.37 | inactive
NUBP2 | -0.49 | inactive
NUBP2 | -0.03 | inactive

The listing continues.
gene,TNF reporter robust z-score,outcome
PIGF,2.25,inactive
PIGF,1.88,inactive
PIGF,1.83,inactive
MYO16,0.13,inactive
MYO16,-0.68,inactive
MYO16,-0.53,inactive
MYO16,-0.8,inactive
MDM2,2.36,inactive
MDM2,2.68,inactive
MDM2,-0.31,inactive
MDM2,-0.24,inactive
TPI1,1.61,inactive
TPI1,1.56,inactive
TPI1,1.46,inactive
TPI1,2.49,inactive
GP9,-0.51,inactive
GP9,-0.11,inactive
GP9,-0.71,inactive
GP9,-0.76,inactive
